Assay results: PMC9104438, “Application of a Fluorescence Anisotropy-Based Assay to Quantify Transglutaminase 2 Activity in Cell Lysates” (International Journal of Molecular Sciences, 2022)

Tested on: DMC
Test: Ultrafiltration to assess noncovalent binding of R-I-Cad to DMC

CCN(CC)c1ccc2c(-c3ccccc3C(=O)N3CCC(C(=O)NCCCCCN)CC3)c3ccc(=[N+](CC)CC)cc-3oc2c1 [R-I-Cad, rhodamine B-isonipecotyl-cadaverine]
R-I-Cad in the eluate after ultrafiltration (R-I-Cad 8.1 µM, DMC 300 µM, 3 kDa cut-off, RP-HPLC): not detectable | factor of drop of free R-I-Cad concentration (at 300 µM DMC, estimated from FA rate dependence on R-I-Cad): greater than 300
